Measured values from PMC11977269.
No constants are given. Whether binding was seen depends on the method and setting. In cells and extracts the contact can be indirect. Some binding calls cover weakened binding; strength is not graded here.

Protein sequences, listed by entry. Tags and fused reporters are not part of them. Lines headed by an entry give the natural chain unless they say otherwise; changes in a name come on top.
UniProt O15392: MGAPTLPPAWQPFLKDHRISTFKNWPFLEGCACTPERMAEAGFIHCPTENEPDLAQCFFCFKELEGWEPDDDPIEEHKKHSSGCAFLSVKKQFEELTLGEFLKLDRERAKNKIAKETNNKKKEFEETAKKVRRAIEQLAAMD

Key:
[1] = target: Flag-Survivin-T34D (UniProt O15392); assay: co-IP; Flag-Survivin-WT or T34D transfected into CAL27 cells for 48 h, IR treatment, cultured 24 h, MG132 for 6 h; interaction with endogenous FBXL7 read by immunoblot; precipitating antibody not stated
[2] = target: Flag-Survivin-WT (UniProt O15392); assay: as above
[3] = target: Survivin (human (endogenous in CAL27)) (UniProt O15392); assay: co-IP; endogenous FBXL7 and Survivin in Skp2-deficient (knockout) and control CAL27 cells, with or without IR, cultured 24 h; IP lysis buffer, protein A/G-agarose beads and antibody at 4 °C for 24 h, western blot; precipitating antibody not stated

Measured: binding

B1: FBXL7 (protein, UniProt Q9UJT9 1-491)
chain: MGANNGKQYGSEGKGSSSISSDVSSSTDHTPTKAQKNVATSEDSDLSMRTLSTPSPALICPPNLPGFQNGRGSSTSSSSITGETVAMVHSPPPTRLTHPLIRLASRPQKEQASIDRLPDHSMVQIFSFLPTNQLCRCARVCRRWYNLAWDPRLWRTIRLTGETINVDRALKVLTRRLCQDTPNVCLMLETVTVSGCRRLTDRGLYTIAQCCPELRRLEVSGCYNISNEAVFDVVSLCPNLEHLDVSGCSKVTCISLTREASIKLSPLHGKQISIRYLDMTDCFVLEDEGLHTIAAHCTQLTHLYLRRCVRLTDEGLRYLVIYCASIKELSVSDCRFVSDFGLREIAKLESRLRYLSIAHCGRVTDVGIRYVAKYCSKLRYLNARGCEGITDHGVEYLAKNCTKLKSLDIGKCPLVSDTGLECLALNCFNLKRLSLKSCESITGQGLQIVAANCFDLQTLNVQDCEVSVEALRFVKRHCKRCVIEHTNPAFF
binds: all assays above
